The other results are listed elsewhere or left out. Single values are uncertain, as repeats are few or missing.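 Labelled rat cortical synaptosomes were engulfed by primary human fetal astrocytes. Engulfment equaled a red/green ratio, corrected for calcein live-cell signal and normalized to the plate median. Compounds were toxic when calcein dropped over 30%, and reduced phagocytosis when below 70% of the median above 5 µM.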
Legend:
[1] = system: Human fetal astrocytes; assay: loss of total cells relative to no-compound high-control median (toxicity); higher = more toxic (fewer cells); conditions: 24 h
[2] = system: Human fetal astrocytes; assay: synaptosome phagocytosis (pHrodo/calcein intensity ratio) relative to plate median of data wells; higher = more phagocytosis; conditions: 24 h

| Compound | loss of total cells ([1]; 1.39 µM) | loss of total cells ([1]; 2.78 µM) | loss of total cells ([1]; 5.56 µM) | loss of total cells ([1]; 11.11 µM) | loss of total cells ([1]; 22.22 µM) | synaptosome phagocytosis ([2]; 1.39 µM) | synaptosome phagocytosis ([2]; 2.78 µM) | synaptosome phagocytosis ([2]; 5.56 µM) | synaptosome phagocytosis ([2]; 11.11 µM) | synaptosome phagocytosis ([2]; 22.22 µM) |
| --- | --- | --- | --- | --- | --- | --- | --- | --- | --- | --- |
| CN1[C@@H](CC(=O)c2ccccc2)CCC[C@H]1C[C@H](O)c1ccccc1 | 17.7% | -8.3% | -2.9% | 11.3% | 12.9% | 102% | 72.7% | 72.6% | 119% | 62.2% |
| S=P(N1CC1)(N1CC1)N1CC1 | 0% | -30.2% | 0% | -13.4% | -8.4% | 121% | 102% | 103% | 64% | 94.2% |
| C=C[C@](C)(O)CCC=C(C)C | 9.8% | 2.5% | 7.3% | 8.8% | 6.7% | 155% | 120% | 158% | 146% | 134% |
| CC1(C)S[C@@H]2[C@H](NC(=O)Cc3ccccc3)C(=O)N2[C@H]1C(=O)O | -24.6% | -20.7% | -9.1% | -6.6% | -16.7% | 80.2% | 109% | 132% | 123% | 115% |
| CC1(C)CCC[C@]2(C)[C@@H]3[C@H]1[C@@H](O)[C@@]2(C)C[C@H]3O | -9% | 0.4% | -2.9% | 9.5% | 4.4% | 118% | 102% | 120% | 94.9% | 136% |
| N[C@H]1C(O)O[C@H](CO)[C@@H](O)[C@@H]1O (stereo not given in full) | 5% | -16.6% | 3.5% | -0.9% | 21% | 129% | 116% | 140% | 114% | 120% |
| COc1cc(/C=C/C(=O)N2CCC=CC2=O)cc(OC)c1OC | 19.9% | 32.1% | 32.6% | 36.4% | 36.4% | 92% | 82.7% | 52% | 48.6% | 33.6% |
| Nc1ncnc2c1ncn2[C@@H]1O[C@H](CO)[C@@H](O)[C@H]1O | -0.8% | -13.7% | 21.3% | 0% | 11.9% | 80.3% | 102% | 113% | 118% | 118% |
| COC(=O)c1c(C)cc(O)cc1O | -15.6% | 2% | 29.8% | 1.3% | -13.7% | 86.1% | 114% | 130% | 95.4% | 88.6% |
| Nc1ncnc2c1ncn2[C@H]1C[C@H](O)[C@@H](CO)O1 | -0.8% | -1.8% | -0.7% | 12.8% | 4.4% | 142% | 122% | 114% | 108% | 94.8% |
| CC(N)CCCC(C)(C)O (stereo not given) | 11.2% | 11.2% | 9.4% | 5.4% | 22% | 77.4% | 127% | 152% | 119% | 119% |
| O=C(O)[C@H]1/C(=C/CO)O[C@@H]2CC(=O)N21 | -28.2% | -30.2% | 11.8% | 23.9% | 2.8% | 87.4% | 111% | 123% | 107% | 103% |
| O=C(O)c1cn(-c2ccc(F)cc2)c2cc(N3CCNCC3)c(F)cc2c1=O | -37.9% | 25.4% | -5.6% | 50.8% | 3.4% | 107% | 153% | 116% | 167% | 106% |
| Cc1cc(O)cc(=O)o1 | 10.5% | -6.1% | 15.2% | 3.8% | -6.1% | 107% | 98.6% | 122% | 100% | 107% |
| CC(=O)Nc1cc2ccccc2oc1=O | 11.2% | 13.4% | -41.3% | 18% | 15.9% | 83.7% | 71.2% | 0% | 133% | 137% |
| CC1(C)S[C@@H]2[C@H](NC(=O)C(C(=O)O)c3ccccc3)C(=O)N2[C@H]1C(=O)O (stereo not given in full) | -19.1% | -11.3% | -3.9% | -18% | 0% | 115% | 114% | 91.1% | 98.6% | 109% |
| C=C1C2CCC3(C)C(c4ccoc4)OC(=O)CC13OC1CC(OC(C)=O)C(C)(C)C(CC(=O)OC)C12C (stereo not drawn) [3beta-ACETOXYDEOXYANGOLENSIC ACID, METHYL ESTER] | 7.6% | -10.6% | 35.9% | 11.6% | 6.3% | 97.2% | 93.8% | 130% | 96.1% | 104% |
| CC(=O)N[C@@H](CC(=O)N[C@@H](CCC(=O)O)C(=O)O)C(=O)O | 6.9% | 14.1% | 8.7% | 13% | 19.7% | 109% | 112% | 106% | 112% | 112% |
| CC1(C)C=Cc2cc3ccc(=O)oc3cc2O1 | 38% | 3.3% | -32.1% | 11% | -1.1% | 147% | 107% | 55.2% | 136% | 102% |
| CC(C)[C@H]1CC[C@H](C(=O)N[C@H](Cc2ccccc2)C(=O)O)CC1 | -9.1% | -4.6% | 13.5% | -12.5% | 11.9% | 105% | 112% | 108% | 126% | 107% |

Ordered by count of non-hydrogen atoms (descending): some entries from above

| Compound | loss of total cells ([1]; 1.39 µM) | loss of total cells ([1]; 2.78 µM) | loss of total cells ([1]; 5.56 µM) | loss of total cells ([1]; 11.11 µM) | loss of total cells ([1]; 22.22 µM) | synaptosome phagocytosis ([2]; 1.39 µM) | synaptosome phagocytosis ([2]; 2.78 µM) | synaptosome phagocytosis ([2]; 5.56 µM) | synaptosome phagocytosis ([2]; 11.11 µM) | synaptosome phagocytosis ([2]; 22.22 µM) |
| --- | --- | --- | --- | --- | --- | --- | --- | --- | --- | --- |
| Nc1ncnc2c1ncn2[C@H]1C[C@H](O)[C@@H](CO)O1 | -0.8% | -1.8% | -0.7% | 12.8% | 4.4% | 142% | 122% | 114% | 108% | 94.8% |
| C=C[C@](C)(O)CCC=C(C)C | 9.8% | 2.5% | 7.3% | 8.8% | 6.7% | 155% | 120% | 158% | 146% | 134% |
| CC(N)CCCC(C)(C)O (stereo not given) | 11.2% | 11.2% | 9.4% | 5.4% | 22% | 77.4% | 127% | 152% | 119% | 119% |

Reference: the supplement of paper PMC10689618
